Test results taken from the supplement of paper PMC7666118.
The other results are listed elsewhere or left out.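 The calls were made as follows: active = dose-dependent thermal stabilisation significant by F-test of dose-response against flat model at 10% FDR; inactive = not significant.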

By UniProt entry, the sequences of proteins in these tests, tags left out. Where a name states a change or a piece, a line headed by the entry shows the natural chain unless it says otherwise.
UniProt Q9BZ95: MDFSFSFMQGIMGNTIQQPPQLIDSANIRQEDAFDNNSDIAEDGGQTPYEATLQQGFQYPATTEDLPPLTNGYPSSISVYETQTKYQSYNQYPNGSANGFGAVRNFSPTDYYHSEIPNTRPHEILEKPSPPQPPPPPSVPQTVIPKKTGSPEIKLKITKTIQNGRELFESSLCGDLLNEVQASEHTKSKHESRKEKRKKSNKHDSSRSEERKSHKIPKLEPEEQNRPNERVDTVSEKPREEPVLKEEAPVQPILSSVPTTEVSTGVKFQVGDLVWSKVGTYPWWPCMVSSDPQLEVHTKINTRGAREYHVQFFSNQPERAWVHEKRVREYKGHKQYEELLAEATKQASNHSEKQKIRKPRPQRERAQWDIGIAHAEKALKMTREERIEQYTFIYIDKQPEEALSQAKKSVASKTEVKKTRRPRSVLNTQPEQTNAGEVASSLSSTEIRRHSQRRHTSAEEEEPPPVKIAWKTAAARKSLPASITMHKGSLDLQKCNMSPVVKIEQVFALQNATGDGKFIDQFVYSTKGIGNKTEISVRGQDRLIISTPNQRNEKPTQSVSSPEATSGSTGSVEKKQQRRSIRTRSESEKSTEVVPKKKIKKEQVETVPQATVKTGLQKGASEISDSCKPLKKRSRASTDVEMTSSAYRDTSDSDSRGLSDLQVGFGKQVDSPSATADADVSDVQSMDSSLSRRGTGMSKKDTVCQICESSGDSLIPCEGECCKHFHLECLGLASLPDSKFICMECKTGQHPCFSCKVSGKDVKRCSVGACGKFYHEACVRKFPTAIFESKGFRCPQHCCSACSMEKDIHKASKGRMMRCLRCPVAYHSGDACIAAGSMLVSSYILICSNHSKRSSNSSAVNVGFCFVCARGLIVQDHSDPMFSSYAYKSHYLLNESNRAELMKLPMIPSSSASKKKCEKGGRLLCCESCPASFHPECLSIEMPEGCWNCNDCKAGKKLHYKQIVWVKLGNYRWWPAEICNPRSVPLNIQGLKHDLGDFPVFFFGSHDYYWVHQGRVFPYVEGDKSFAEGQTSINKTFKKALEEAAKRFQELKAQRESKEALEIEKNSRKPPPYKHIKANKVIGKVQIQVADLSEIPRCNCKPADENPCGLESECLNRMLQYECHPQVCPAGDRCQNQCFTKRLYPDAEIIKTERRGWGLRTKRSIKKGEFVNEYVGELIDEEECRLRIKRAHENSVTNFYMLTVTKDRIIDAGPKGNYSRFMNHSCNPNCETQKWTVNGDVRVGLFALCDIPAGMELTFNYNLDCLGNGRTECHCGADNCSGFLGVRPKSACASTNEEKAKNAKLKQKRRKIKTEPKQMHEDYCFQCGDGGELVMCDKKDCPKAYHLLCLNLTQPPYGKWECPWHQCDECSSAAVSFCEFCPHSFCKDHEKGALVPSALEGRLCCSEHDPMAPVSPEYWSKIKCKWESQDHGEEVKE
UniProt Q16656: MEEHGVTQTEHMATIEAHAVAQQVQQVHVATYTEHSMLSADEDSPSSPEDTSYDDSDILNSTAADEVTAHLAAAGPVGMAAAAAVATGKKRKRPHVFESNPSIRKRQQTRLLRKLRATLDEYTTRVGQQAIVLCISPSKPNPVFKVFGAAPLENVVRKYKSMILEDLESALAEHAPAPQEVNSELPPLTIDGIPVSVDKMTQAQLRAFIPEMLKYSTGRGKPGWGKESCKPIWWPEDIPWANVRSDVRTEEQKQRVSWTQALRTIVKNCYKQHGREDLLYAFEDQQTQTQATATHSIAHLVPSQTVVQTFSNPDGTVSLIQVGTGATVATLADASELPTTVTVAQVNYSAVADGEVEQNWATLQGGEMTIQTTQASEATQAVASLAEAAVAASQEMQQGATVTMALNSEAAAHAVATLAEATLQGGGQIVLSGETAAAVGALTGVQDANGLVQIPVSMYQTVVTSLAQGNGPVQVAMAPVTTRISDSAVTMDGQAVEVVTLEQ
UniProt Q15223: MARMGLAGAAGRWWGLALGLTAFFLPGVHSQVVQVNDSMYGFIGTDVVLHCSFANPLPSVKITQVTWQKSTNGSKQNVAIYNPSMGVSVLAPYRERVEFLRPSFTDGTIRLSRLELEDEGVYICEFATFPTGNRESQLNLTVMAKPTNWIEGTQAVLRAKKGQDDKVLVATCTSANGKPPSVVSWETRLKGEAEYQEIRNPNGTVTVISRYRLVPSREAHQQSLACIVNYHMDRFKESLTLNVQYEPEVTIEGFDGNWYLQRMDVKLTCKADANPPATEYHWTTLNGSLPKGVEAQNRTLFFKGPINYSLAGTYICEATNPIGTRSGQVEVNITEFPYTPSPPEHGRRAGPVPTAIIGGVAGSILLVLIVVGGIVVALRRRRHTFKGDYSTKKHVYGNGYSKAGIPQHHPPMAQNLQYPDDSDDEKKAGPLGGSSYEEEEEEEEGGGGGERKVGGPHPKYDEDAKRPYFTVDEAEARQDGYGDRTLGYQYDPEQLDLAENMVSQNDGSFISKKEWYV
UniProt Q13310, whole entry: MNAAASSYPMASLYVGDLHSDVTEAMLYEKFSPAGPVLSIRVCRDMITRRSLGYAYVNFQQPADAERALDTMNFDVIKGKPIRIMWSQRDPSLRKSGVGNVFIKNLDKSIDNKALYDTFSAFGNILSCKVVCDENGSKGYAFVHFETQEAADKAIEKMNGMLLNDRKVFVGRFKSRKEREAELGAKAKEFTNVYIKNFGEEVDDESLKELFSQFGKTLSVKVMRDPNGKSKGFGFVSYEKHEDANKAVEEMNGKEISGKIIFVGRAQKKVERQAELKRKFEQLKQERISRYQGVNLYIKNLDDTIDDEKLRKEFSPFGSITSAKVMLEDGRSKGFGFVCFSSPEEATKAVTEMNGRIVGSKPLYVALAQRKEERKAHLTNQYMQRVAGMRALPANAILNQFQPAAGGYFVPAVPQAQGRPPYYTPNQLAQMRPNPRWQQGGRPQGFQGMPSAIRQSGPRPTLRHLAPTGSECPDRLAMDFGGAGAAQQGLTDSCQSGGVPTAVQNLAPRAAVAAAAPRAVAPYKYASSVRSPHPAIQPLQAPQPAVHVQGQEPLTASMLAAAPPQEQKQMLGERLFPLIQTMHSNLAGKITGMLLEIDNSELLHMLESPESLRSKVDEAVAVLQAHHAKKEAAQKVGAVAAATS
UniProt Q9H1P3, whole entry: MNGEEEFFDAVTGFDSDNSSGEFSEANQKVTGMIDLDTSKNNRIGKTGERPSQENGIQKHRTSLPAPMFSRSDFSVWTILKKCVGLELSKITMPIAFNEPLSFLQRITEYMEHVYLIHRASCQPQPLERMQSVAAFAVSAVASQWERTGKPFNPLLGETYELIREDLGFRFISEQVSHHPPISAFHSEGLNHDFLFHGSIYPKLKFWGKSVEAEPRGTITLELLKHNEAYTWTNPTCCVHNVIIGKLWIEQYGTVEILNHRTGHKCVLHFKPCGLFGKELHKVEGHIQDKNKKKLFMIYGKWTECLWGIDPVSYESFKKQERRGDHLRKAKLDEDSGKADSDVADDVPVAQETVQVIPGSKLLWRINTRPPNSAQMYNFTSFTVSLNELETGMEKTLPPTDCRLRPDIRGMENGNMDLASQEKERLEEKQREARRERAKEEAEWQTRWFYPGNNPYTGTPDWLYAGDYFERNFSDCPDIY
UniProt Q14207: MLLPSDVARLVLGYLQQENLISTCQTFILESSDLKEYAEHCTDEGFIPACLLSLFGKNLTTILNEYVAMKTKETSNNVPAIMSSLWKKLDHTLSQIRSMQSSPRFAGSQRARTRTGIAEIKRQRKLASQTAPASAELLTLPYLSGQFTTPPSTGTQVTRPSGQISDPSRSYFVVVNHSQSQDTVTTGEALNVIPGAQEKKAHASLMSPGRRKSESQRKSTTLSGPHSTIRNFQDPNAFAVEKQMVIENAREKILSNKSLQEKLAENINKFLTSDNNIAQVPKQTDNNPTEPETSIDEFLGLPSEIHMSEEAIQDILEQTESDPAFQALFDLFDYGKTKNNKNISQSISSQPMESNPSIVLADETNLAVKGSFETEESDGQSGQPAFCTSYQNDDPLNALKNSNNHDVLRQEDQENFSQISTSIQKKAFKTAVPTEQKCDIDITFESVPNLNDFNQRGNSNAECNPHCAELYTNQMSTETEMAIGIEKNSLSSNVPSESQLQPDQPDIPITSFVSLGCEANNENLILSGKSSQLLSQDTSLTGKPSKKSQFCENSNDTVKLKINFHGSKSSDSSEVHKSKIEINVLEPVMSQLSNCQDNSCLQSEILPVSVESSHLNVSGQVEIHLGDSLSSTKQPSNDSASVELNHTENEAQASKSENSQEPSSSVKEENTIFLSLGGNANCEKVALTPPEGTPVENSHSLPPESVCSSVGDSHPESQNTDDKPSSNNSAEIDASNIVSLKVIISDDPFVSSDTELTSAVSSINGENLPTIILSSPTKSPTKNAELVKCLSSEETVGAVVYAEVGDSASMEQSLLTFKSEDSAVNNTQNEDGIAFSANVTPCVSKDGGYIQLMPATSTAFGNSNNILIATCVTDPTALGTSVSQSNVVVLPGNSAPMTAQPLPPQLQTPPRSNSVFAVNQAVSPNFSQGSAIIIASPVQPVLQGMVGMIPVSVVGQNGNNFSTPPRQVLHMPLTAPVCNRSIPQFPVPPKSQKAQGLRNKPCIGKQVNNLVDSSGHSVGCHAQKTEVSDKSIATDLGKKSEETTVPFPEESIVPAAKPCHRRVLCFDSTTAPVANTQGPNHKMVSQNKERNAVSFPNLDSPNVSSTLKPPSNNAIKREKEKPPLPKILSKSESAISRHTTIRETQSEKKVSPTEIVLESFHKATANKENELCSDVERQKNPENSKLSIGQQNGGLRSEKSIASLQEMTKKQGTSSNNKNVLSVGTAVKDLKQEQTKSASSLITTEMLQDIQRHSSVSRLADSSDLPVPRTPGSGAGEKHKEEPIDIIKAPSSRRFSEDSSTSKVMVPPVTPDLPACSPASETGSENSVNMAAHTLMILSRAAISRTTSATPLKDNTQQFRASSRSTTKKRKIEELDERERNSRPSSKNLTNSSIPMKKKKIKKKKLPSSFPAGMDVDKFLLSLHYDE
UniProt P51513: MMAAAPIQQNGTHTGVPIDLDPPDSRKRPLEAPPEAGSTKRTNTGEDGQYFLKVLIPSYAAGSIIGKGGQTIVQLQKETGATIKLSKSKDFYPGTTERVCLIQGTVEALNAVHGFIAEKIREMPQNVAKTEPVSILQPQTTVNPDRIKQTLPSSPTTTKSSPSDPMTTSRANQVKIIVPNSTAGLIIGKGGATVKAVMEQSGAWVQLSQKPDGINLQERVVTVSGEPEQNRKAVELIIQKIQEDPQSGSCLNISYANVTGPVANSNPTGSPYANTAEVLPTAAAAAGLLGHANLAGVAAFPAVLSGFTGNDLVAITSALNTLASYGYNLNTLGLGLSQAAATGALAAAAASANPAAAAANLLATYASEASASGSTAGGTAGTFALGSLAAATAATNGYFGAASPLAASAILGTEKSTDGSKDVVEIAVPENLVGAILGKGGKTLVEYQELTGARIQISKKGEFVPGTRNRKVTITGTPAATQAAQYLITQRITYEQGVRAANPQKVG
UniProt Q969R2: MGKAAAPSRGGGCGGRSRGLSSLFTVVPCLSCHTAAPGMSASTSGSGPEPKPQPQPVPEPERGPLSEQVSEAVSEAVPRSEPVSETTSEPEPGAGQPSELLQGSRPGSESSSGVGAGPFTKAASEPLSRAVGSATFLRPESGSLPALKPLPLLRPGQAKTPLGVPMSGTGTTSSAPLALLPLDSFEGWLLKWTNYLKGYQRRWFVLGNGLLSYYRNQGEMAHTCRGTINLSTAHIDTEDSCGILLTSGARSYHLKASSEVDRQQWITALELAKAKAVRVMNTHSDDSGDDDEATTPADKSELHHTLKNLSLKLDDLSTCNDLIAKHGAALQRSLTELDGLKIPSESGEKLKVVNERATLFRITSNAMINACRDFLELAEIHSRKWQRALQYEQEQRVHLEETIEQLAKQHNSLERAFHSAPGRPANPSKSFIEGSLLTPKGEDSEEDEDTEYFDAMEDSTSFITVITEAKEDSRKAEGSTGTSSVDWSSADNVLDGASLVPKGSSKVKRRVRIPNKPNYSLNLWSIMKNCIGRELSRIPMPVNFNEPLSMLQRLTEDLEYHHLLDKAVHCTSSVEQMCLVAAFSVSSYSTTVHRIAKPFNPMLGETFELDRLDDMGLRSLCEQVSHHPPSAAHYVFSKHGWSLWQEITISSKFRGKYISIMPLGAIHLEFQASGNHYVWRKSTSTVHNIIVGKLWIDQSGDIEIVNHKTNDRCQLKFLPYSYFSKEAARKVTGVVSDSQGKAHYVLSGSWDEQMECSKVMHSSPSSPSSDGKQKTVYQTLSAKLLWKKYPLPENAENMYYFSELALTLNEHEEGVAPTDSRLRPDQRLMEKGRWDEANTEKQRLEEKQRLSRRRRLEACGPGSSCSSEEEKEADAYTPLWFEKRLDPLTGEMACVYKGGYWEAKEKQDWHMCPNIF

Compound: Nc1nc2c(ncn2[C@@H]2O[C@H](COP(=O)(O)OP(=O)(O)OP(=O)(O)O)[C@@H](O)[C@H]2O)c(=O)[nH]1
Experiment: dose-dependent thermal stabilisation call (2D-TPP, DLPTP, 10% FDR) (binary (1 = stabilised)); higher = stabilised by the compound
Conditions: system: Jurkat gel-filtered lysate; concentration range 1-500 µM
Protocol: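 2D thermal proteome profiling in gel-filtered Jurkat E6.1 lysate (2 mg/ml) treated with NaGTP (0, 1, 10, 100, 500 uM) for 10 min at room temperature, then heated 3 min at one of 12 temperatures (42-63.9 C). Soluble protein was quantified by TMT10 MS. The value is the DLPTP call of the paper: dose-dependent thermal stabilisation over all temperatures at 10% FDR (F-test of a dose-response against a flat model); one experiment, one call per tested protein.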

Target	dose-dependent thermal stabilisation call
NAXE (UniProt Q8NCW5)	inactive: 0
NSD3 (UniProt Q9BZ95)	inactive: 0
NEK7 (UniProt Q8TDX7)	active: 1
NRF1 (UniProt Q16656)	inactive: 0
NLE1 (UniProt Q9NVX2)	inactive: 0
NF2 (UniProt P35240)	inactive: 0
NCBP3 (UniProt Q53F19)	inactive: 0
NECTIN1 (UniProt Q15223)	inactive: 0
NMT2 (UniProt O60551)	inactive: 0
PAFAH1B3 (UniProt Q15102)	inactive: 0
NSMCE2 (UniProt Q96MF7)	inactive: 0
NUP153 (UniProt P49790)	inactive: 0
PABPC4 (UniProt Q13310)	active: 1
OSBPL2 (UniProt Q9H1P3)	active: 1
NAA20 (UniProt P61599)	inactive: 0
NCOA7 (UniProt Q8NI08)	inactive: 0
NUP205 (UniProt Q92621)	active: 1
NEK1 (UniProt Q96PY6)	inactive: 0
NFAT5 (UniProt O94916)	inactive: 0
NIT2 (UniProt Q9NQR4)	active: 1

Target	dose-dependent thermal stabilisation call
NCOA6 (UniProt Q14686)	inactive: 0
NBN (UniProt O60934)	inactive: 0
NUDT21 (UniProt O43809)	active: 1
NPAT (UniProt Q14207)	inactive: 0
NCOR2 (UniProt Q9Y618)	inactive: 0
PANK4 (UniProt Q9NVE7)	active: 1
NOTCH3 (UniProt Q9UM47)	inactive: 0
NCAPD3 (UniProt P42695)	active: 1
NCAPG2 (UniProt Q86XI2)	active: 1
NMI (UniProt Q13287)	inactive: 0
NMRAL1 (UniProt Q9HBL8)	inactive: 0
NT5C (UniProt Q8TCD5)	inactive: 0
NSMCE3 (UniProt Q96MG7)	inactive: 0
NOVA1 (UniProt P51513)	inactive: 0
NAGA (UniProt P17050)	inactive: 0
NFYA (UniProt P23511)	inactive: 0
NOP14 (UniProt P78316)	inactive: 0
NFS1 (UniProt Q9Y697)	inactive: 0
NUBP1 (UniProt P53384)	inactive: 0
OSBP2 (UniProt Q969R2)	inactive: 0

Another view of some results above:

| Target | dose-dependent thermal stabilisation call |
| --- | --- |
| PAFAH1B3 (UniProt Q15102) | inactive: 0 |
| NAGA (UniProt P17050) | inactive: 0 |
| NUBP1 (UniProt P53384) | inactive: 0 |
